US20150125515A1 (UNIVERSITY OF ROCHESTER, priority 2012, published 2015)

Legend:
[1] = FTIR spectroscopy, proportions of secondary structure; type: physicochemical
Source text: The DATK substitution in novel MB DATK_Red and MB DATK_Ox peptides in Table 10 also leads to improved adsorption activity relative to that previously reported for MB without the DATK substitution (for MB activity, see Walther et al, “Dynamic Surface activity of a Fully-Synthetic Phospholipase-Resistant Lipid/Peptide Lung Surfactant,” PLoS ONE, 2(10):1-10: e1039. (2007), which is hereby incorporated by reference in its entirety). […] At a peptide/lipid ratio of 1/10, Fourier transform infrared (FTIR) spectra of MB DATK_Red with surfactant lipids (5:3:2 weight ratio DPPC:POPC:POPG) in sodium phosphate buffered saline (10 mM PBS, pH 7.4) indicated high secondary conformations for loop-turn (32.8%) and alpha-helix (27.4%). […] The ability of the DATK substitution to increase SP-B peptide activity while also simplifying post-synthesis processing (folding/oxidation) enhances the potential pharmaceutical utility of these or related novel materials.
To assess the structural properties of selected SP-C peptides with and without an ion-lock, FTIR spectroscopic analyses were performed on a peptide without palmitoyl groups that represents the native sequence of SP-C (i.e., SP-Cff; SEQ ID NO: 396), a SP-C mimic with elevated surfactant activity (i.e., SP-C33; SEQ ID NO: 397) and a SP-C mimic with a salt bridge at Glu-20 and Lys-24 (i.e., SP-Css ion-lock; SEQ ID NO: 45). SP-C33 and SP-Css ion-lock were prepared as described earlier, and SP-Cff was also synthesized with standard techniques (Waring et al., “The Role of Charged Amphipathic Helices in the Structure and Function of Surfactant Protein B,”J Peptide Res 66:364-374 (2005); Walther et al., “Critical Structural and Functional Roles for the N-terminal Insertion Sequence in Surfactant Protein B Analogs,” PLoS One 5:e8672 (2010), each of which is hereby incorporated by reference in its entirety). FTIR spectra were obtained for the above SP-C mimics in surfactant lipids (5:3:2 weight ratio DPPC:POPC:POPG) in 10 mM PBS (pH 7.4) at a peptide/lipid ratio (P/L) of 1/10. Subsequent spectral deconvolutions were performed to determine the relative proportions of secondary structure, as described earlier (Walther et al., “Critical Structural and Functional Roles for the N-terminal Insertion Sequence in Surfactant Protein B Analogs,” PLoS One 5:e8672 (2010), which is hereby incorporated by reference in its entirety). FTIR spectra indicated predominant α-helix (i.e., ˜63%) for the SP-Css ion-lock in surfactant lipids, as opposed to the very high β-sheet (i.e., ˜59%) observed with the corresponding FTIR spectrum of its related parent SP-Cff without an ion-lock. Consequently, insertion of the ion-lock (i.e., Glu^−-20 and Lys^+-24) in the mid-section of the poly-Val sequence produced a remarkable conformation shift in the SP-C structure, from an ‘amyloid-like’ β-sheet profile to one that is primarily α-helix. […] In the present studies, FTIR spectra and functional measurements on SP-Css ion-lock in surfactant lipids indicated high α-helix content in correlation with its high in vitro surfactant activity (Table 12). […] The elevated α-helix and in vitro adsorption surface pressure noted for SP-Css ion-lock are similar to those of SP-C33, but here are achieved with a novel mechanism in which a single ion-lock (i.e., Glu-20, Lys-24) is incorporated into the transmembrane poly-Val core.

[2] = Fmoc solid-phase peptide synthesis; H-Ser(OtBu)-HMPB NovaPEG resin or Wang-Ser(OtBu) resin; conditions: whole synthesis
[3] = surfactant lipids 5:3:2 weight ratio DPPC:POPC:POPG, 10 mM PBS pH 7.4, peptide/lipid ratio 1/10
[4] = lipid-mimic 35% HFIP/65% sodium phosphate buffer, pH 7.4

Substance: GIPFFPVHLKRLLIVVVVVVLIVVVIVGALLMGL [SP-Cff]
- FTIR secondary conformation, β-sheet [1, 3]: ~59%

Substance: GIPSSPVHLKRLLIVVVVVELIVKVIVGALLMGL (SP-C SS Ion Lock + L E20/K24) [SP-Css ion-lock]
- FTIR secondary conformation, α-helix [1, 3]: ~63%

Substance: IPSSPVHLKRLKLLLLLLLLILLLILGALLMGL (SP-c33) [previously reported SP-C peptide (Almlen et al. 2007)]
- FTIR secondary conformation, α-helix [1, 3]: 67%

Substance: CWLCRALIKRIQAMIDATKRMLPQLVCRLVLRCS
- final purity (method not given) [2]: better than 95%

Substance: CWLCRALIKRIQAMIDATKRMLPQLVCRLVLRCS (N-ethylmaleimide-blocked Cys1 and Cys33; MB_datk) [MB DATK_Red]
- FTIR secondary conformation, loop-turn [1, 3]: 32.8%
- FTIR secondary conformation, α-helix [1, 3]: 27.4%

Substance: LGIPFFPSSLKRLLIILLL-NH2
- FTIR secondary conformation, α-helix [1, 4]: ~45%
- FTIR secondary conformation, β-sheet [1, 4]: ~10%

For some assays here: Plain letter strings leave the end groups untold. Where no end group is shown, it is not given here.
